In PubChem BioAssay AID652054 (National Center for Advancing Translational Sciences (NCATS), 2013):
In all, about 360,000 compounds went through this assay and about 9,100 (2.5%) were called active. Inconclusive means that the source gave no clear call. Such entries were picked first, then a sample of the others. Cut-off read from the data, not from the text of the source: active = max response below about -50%; inconclusive = no clear call, values can overlap the other calls; inactive = above that.

By UniProt entry, the sequences of proteins in these tests, tags left out.
UniProt P35462, whole entry, looked up: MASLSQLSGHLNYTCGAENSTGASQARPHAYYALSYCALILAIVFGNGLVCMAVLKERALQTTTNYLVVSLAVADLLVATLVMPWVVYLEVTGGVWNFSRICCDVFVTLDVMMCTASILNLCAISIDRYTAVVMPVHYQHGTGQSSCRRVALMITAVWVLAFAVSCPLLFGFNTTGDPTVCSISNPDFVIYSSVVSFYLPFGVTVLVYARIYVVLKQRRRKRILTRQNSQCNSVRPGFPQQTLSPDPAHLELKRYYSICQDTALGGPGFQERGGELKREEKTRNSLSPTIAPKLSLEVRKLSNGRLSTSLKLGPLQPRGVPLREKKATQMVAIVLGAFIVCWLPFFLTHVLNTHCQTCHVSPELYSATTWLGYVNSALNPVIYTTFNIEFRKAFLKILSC

Each compound was assayed against D(3) dopamine receptor (Homo sapiens) (UniProt P35462) (assay: qHTS of D3 Dopamine Receptor Antagonist: qHTS). Settings: D3R cells, DiscoveRx beta-arrestin luminescence, antagonist mode; hits give low values.
Outline: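 Cells expressing the human receptor were seeded at 1500 cells/well, incubated overnight at 37 degrees C in 5% CO2, then exposed to library compounds with dopamine controls for 90 minutes at 37 degrees C before luminescent detection.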
% is set by controls: 0 for no effect and ±100 for the full control effect.

SMILES | max response, negative = inhibition
CCC(c1nnnn1-c1ccc2c(c1)OCCO2)N1CCN(CCN2CCOCC2)CC1 (stereo not given) | inactive: -16.3%
CN1C(=O)/C(=C\c2cc(N=Nc3ccccc3)ccc2O)SC1=S | inconclusive: -37.2%
CS(=O)(=O)/C(C#N)=C/c1cccn1S(=O)(=O)c1ccc([N+](=O)[O-])cc1 | inactive: -13.9%
C/C(CCC(C)C)=N\Nc1ccc(S(N)(=O)=O)cc1[N+](=O)[O-] | active: -58.2%
CCCn1c2c(c(O)c(C(=O)Nc3ncccc3C)c1=O)CCCC2 | inconclusive: -33.1%
CCN1CCN(C(=O)c2ccc(Cn3c(=O)[nH]c4cc(OC)c(OC)cc4c3=O)cc2)CC1 | inactive: -10.5%
COc1cccc2sc(Nc3nc4ccc(NC(C)=O)cc4s3)nc12 | inactive: 3.49%
COc1cc(OC)c2c(-c3ccccc3)cc(=O)oc2c1C(CC(=O)N1CCCC1)c1ccc2c(c1)OCO2 (stereo not given) | inconclusive: -48.5%
Cn1c(CNc2nc3ccccc3n2CCN2CCCCC2)nc2ccccc21 | inconclusive: -46.4%
COC(=O)/C=C1/S/C(=N/NC(=O)c2ccccc2C)NC1=O | inconclusive: -48.3%
CC(=O)Nc1ccc(NC(=O)COC(=O)CCNS(=O)(=O)c2c(Cl)cccc2Cl)cc1 | inactive: 14.5%
COC(=O)CCC(=O)Nc1ccc2oc3c(c2c1)CCCC3 | inactive: -4.86%
COc1cccc(C(=O)CN2C3=NCCCN3c3ccccc32)c1 | active: -61.7%
CC(=O)c1cccc(Nc2nc(-c3ccccc3)nc3ccccc23)c1 | inactive: 8.02%
CCN(CC)CCNC(=O)CCc1c(C)nc2c(c(C)nn2-c2ccc(C)c(C)c2)c1C | inconclusive: -34.5%
Cc1ccc(-c2csc(C(C#N)=C3CCCC3)n2)cc1 | inconclusive: -49.6%
Clc1cccc(OCCN2CCOCC2)c1 | active: -66.2%
Cc1ccccc1N1CCN(C2CCCN(C(=O)CCC3(C)CC3)C2)CC1 (stereo not given) | active: -64.4%
C=CCNC(=S)NNC(=O)c1ccc([N+](=O)[O-])cc1 | inconclusive: -37.7%
COc1ccc(C2CC(c3ccccc3)=NN2C(=O)CSc2nnnn2-c2cccc(C)c2)cc1 (stereo not given) | inconclusive: -38.4%
O=C(CCc1nnc(CCCCc2ccccc2)o1)N1CCCC(O)C1 (stereo not given) | inactive: -5.06%
OCCCC1CCCN(Cc2cn[nH]c2-c2ccc(F)cc2F)C1 (stereo not given) | inconclusive: -36.4%
CCN(CC)C(=O)[C@H]1C[C@H](CC(=O)NC/C=C(\C)CCC=C(C)C)C(=O)N2CCc3c([nH]c4cc(-c5ccco5)ccc34)[C@]12C | inactive: -29%
CCc1cc(Cn2nc(-c3ccccc3)cc2C(=O)NCCOC)on1 | inactive: -8.31%
COc1ccc(S(=O)(=O)N2c3ccccc3OCC2c2ccccc2)cc1 (stereo not given) | inconclusive: -46.2%
CCOc1c2ccc(C(=O)NCc3ccc(OC)cc3)cc2nn1CCOC | inconclusive: -39.5%
COc1ccc2c(c1)C(C)=CC(C)(C)N2C(=O)CNCc1ccc2c(c1)OCO2 | inconclusive: -41%
CCOC(=O)N1CCN(CC(O)c2c[nH]c3ccc(OC)cc23)CC1 (stereo not given) | inactive: 64.6%

3 structures out of the list, sorted by heavy-atom count, largest number first:
SMILES | max response, negative = inhibition
CC(=O)Nc1ccc(NC(=O)COC(=O)CCNS(=O)(=O)c2c(Cl)cccc2Cl)cc1 | inactive: 14.5%
CC(=O)c1cccc(Nc2nc(-c3ccccc3)nc3ccccc23)c1 | inactive: 8.02%
Cc1ccc(-c2csc(C(C#N)=C3CCCC3)n2)cc1 | inconclusive: -49.6%

Later entries.

SMILES | max response, negative = inhibition
O=C(CCN1CCc2ccccc2C1)c1ccc2c(c1)OCCO2 | active: -88.4%
CCCCc1nc2ccc(F)cc2cc1C | inactive: 20.6%
O=C(O)c1ccc(NC(CSCc2ccccc2F)C(=O)O)c([N+](=O)[O-])c1 (stereo not given) | inconclusive: -42.3%
Cc1cccc(NC(=S)NC(NC(=O)c2ccco2)C(Cl)(Cl)Cl)c1 (stereo not given) | inconclusive: -44%
O=C1NC[C@H](CCCCN2C[C@H](Cc3ccc(O)cc3)N(CC3CCCCC3)C(=O)C2=O)N(CCc2ccccc2)C1=O | inconclusive: -35.8%
O=C(OCc1nc2ccccc2s1)c1ccc(Br)s1 | inactive: -7.32%
Cc1ccc(C)c(S(=O)(=O)Nc2ccc(C(=O)N3CCOCC3)cc2)c1 | active: -51.3%
Cc1ccc(Nc2cc(C)nn2-c2nc(C)cc(=O)[nH]2)cc1 | active: -66.8%
COc1cc2c(cc1NC(=O)COC(=O)[C@@H](NC(=O)c1ccccc1)C(C)C)oc1ccccc12 | inactive: 23.1%
COc1cccc(C(=O)NNC(=O)C2CC(C)=C(C)CC2C(=O)O)c1 (stereo not given) | inconclusive: -39.1%
C=CCn1c(-c2cc(OC)cc(OC)c2)n[nH]c1=S | active: -58.9%
O=C(/C=C/c1ccc([N+](=O)[O-])o1)NNC(=O)c1ccc(F)cc1 | inconclusive: -35.9%
CCOc1c2ccc(C(=O)NCc3cc(C(F)(F)F)cc(C(F)(F)F)c3)cc2nn1C | inconclusive: -31.7%
Cc1[nH]c2ccccc2c1Cc1nnc(SCc2ccccc2)o1 | inconclusive: -36.5%
CCSc1nnc(NC(=O)CC)s1 | inconclusive: -44.5%
COC(=O)c1[nH]c2ccccc2c1NC(=O)CCN1CCSCC1 | active: -56.7%
Cc1ccc2c(c1)NC(=O)C(CC(=O)NCCCN1CCc3ccccc3C1)O2 (stereo not given) | inconclusive: -46.2%
N#C/C(=C/c1ccncc1)c1nc2ccccc2s1 | inconclusive: -36.7%
O=C(Nc1cc2c3c(c1)CC(=O)N3CCC2)C1CCCCC1 | inactive: 19.7%
Cc1cc(C)cc(C(=O)NC(=S)Nc2ccc(Cc3ccncc3)cc2)c1 | inconclusive: -47.5%
CCc1nc2c(OCc3cc(Cl)cc(Cl)c3)cccn2c1N(C)C(=O)Nc1ccccc1OC | inconclusive: -39%
CCc1ccccc1NC(=O)CN1C(=O)C2CCCN2c2ncc(Cl)cc21 (stereo not given) | inactive: -15.8%
Cc1cc(C)cc(N(C(=O)CNC(=O)c2ccco2)C(C(=O)NC2CCCC2)c2ccncc2)c1 (stereo not given) | inconclusive: -35%
CCN1CCN(C(=O)C(C)N(c2ccc(C)cc2)S(C)(=O)=O)CC1 (stereo not given) | inconclusive: -35.6%
Fc1ccc(COc2ccc(Br)cc2CNCc2ccncc2)cc1 | inconclusive: -39.3%
C=CC[C@@H](Cc1ccc(F)cc1)C(=O)OC[C@@H]1CCCN1C(=O)[C@H](CC=C)CC(=O)N(CCO)Cc1ccccc1 | inconclusive: -40%
Cc1c(C(=O)Oc2cccc3cccnc23)oc2ccccc12 | inconclusive: -31.6%
